Strings that start with PEPTIDE1 are HELM notation: dots part the residues, brackets hold end groups and non-standard residues.

A short description of the first series: general procedure: solution-phase peptide synthesis; PyBroP/DIEA; HOOBt/water-soluble carbodiimide. The note with it: coupling step.
Regarding “Boc-L -Leu-L -βHOMeVal-D -Hmp-L -MeVal-L -Phe-D -MeAla-L -Pro-OPac”, the step yield is 75.5%.

“Boc-L -MeVal-L -Phe-D -MeAla-L -Pro-OPac” yielded a step yield of 82.3%. “Boc-L -aIle-L -MeVal-L -Leu-L -βHOMeVal-D -Hmp-L -MeVal-L -Cha-D -MeAla-L -Pro-OPac” returned a step yield of 89.2%. Substance “Boc-L -aIle-L -MeVal-L -Leu-L -βHOMeVal-D -Hmp-L -MeVal-L -Cha-D -MeSer(Bzl)-L -Pro-OPac” gave a step yield of 80.7%. Regarding “Boc-L -aIle-L -MeVal-L -Leu-L -βHOMeVal-D -Hmp-L -MeVal-L -Cha-D -MeVal-L -Pro-OPac”, the step yield came to 67.9%. Same read-out and setting: the value for “Boc-L -aIle-L -MeVal-L -Leu-L -βHOMeVal-D -Hmp-L -MeVal-L -Cha-L -MePhe-L -Pro-OPac” was 68.8%. As to “Boc-L -aIle-L -MeVal-L -Leu-L -βHOMeVal-D -Hmp-L -MeVal-L -Leu-D -MeAla-L -Pro-OPac”, the step yield worked out at 55.5%. Same read-out and setting: under “Boc-L -aIle-L -MeVal-L -Leu-L -βHOMeVal-D -Hmp-L -MeVal-L -Phe-D -MeAla-L -Pro-OPac” stands 85.1%; under “Boc-L -aIle-L -MeVal-L -Leu-L -βHOMeVal-D -Hmp-L -MeVal-L -Phe-D -MeVal-L -Pro-OPac”, 62.3%; under “Boc-L -aIle-L -MeVal-L -Leu-L -βHOMeVal-D -Hmp-L -MeVal-L -Ser(Bzl)-D -MeAla-L -Pro-OPac”, 77.1%.

Consider “Boc-L -aIle-L -MeVal-L -Leu-L -βHOMeVal-D -Hmp-L -MeVal-L -Tyr(Bzl)-D -MeAla-L -Pro-OPac”, for which the step yield is given as 74.3%.

With “Boc-L -aIle-L -MeVal-L -Leu-L -βHOMeVal-D -Hmp-L -MeVal-L -Tyr(c-C6 H11 --CH2 --)-D -MeAla-L -Pro-OPac”, the step yield is reported as 91.2%. “Boc-L -aIle-L -MeVal-L -Leu-L -βHOMeVal-D -Hmp-L -MeVal-L -pFPhe-D -MeAla-L -Pro-OPac” registered a step yield of 88.7%.

Still in this series, the particulars now being: cyclisation step.
“Cyclo (L -aIle-L -MeVal-L -Leu-L -βHOMeVal-D -Hmp-L -MeVal-L -Phe-D -MeAla-L -Pro)” had a cyclisation yield of 55.5%. Still for that read-out and setting: the value for “PEPTIDE1{[aIle].[MeVal].L.[bHOMeVal].[D-Hmp].[MeVal].F.[D-MeVal].P}$PEPTIDE1,PEPTIDE1,1:R1-9:R2$$$V2.0” was 35.0%; that for “PEPTIDE1{[aIle].[MeVal].L.[bHOMeVal].[D-Hmp].[MeVal].L.[D-MeAla].P}$PEPTIDE1,PEPTIDE1,1:R1-9:R2$$$V2.0” was 39.4%; that for “PEPTIDE1{[aIle].[MeVal].L.[bHOMeVal].[D-Hmp].[MeVal].[Ser(Bzl)].[D-MeAla].P}$PEPTIDE1,PEPTIDE1,1:R1-9:R2$$$V2.0” was 45.2%. Still for that read-out and setting: under “PEPTIDE1{[aIle].[MeVal].L.[bHOMeVal].[D-Hmp].[MeVal].[Tyr(Bzl)].[D-MeAla].P}$PEPTIDE1,PEPTIDE1,1:R1-9:R2$$$V2.0” stands 41.5%; under “PEPTIDE1{[aIle].[MeVal].L.[bHOMeVal].[D-Hmp].[MeVal].[pFPhe].[D-MeAla].P}$PEPTIDE1,PEPTIDE1,1:R1-9:R2$$$V2.0”, 29.8%; under “cyclo(L -aIle-L -MeVal-L -Leu-L -βHOMeVal-D -Hmp-L -MeVal-L -Cha-D -MeAla-L -Pro)”, 28.6%. Same read-out and setting: the value for “cyclo(L -aIle-L -MeVal-L -Leu-L -βHOMeVal-D -Hmp-L -MeVal-L -Cha-D -MeSer(Bzl)-L -Pro)” was 34.3%.

In turn, “cyclo(L -aIle-L -MeVal-L -Leu-L -βHOMeVal-D -Hmp-L -MeVal-L -Cha-D -MeVal-L -Pro)” came in with a cyclisation yield of 20.5%. On the same count and under the same terms, under “cyclo(L -aIle-L -MeVal-L -Leu-L -βHOMeVal-D -Hmp-L -MeVal-L -Cha-L -MePhe-L -Pro)” stands 23.9%; under “cyclo(L -aIle-L -MeVal-L -Leu-L -βHOMeVal-D -Hmp-L -MeVal-L -Tyr(c-C6 H11 --CH2 --)-D -MeAla-L -Pro)”, 52.3%.

Still in this series, the particulars now being: late stage modification step.
Substance “Boc-L -aIle-L -MeVal-L -Leu-L -βHOMeVal-D -Hmp-L -MeVal-OH” displayed a step yield of 77.8%. Still for that read-out and setting: the value for “H-L -Phe-L -MePhe-L -Pro-L -aIle-L -MeVal-L -Leu-L -βHOMeVal-D -Hmp-L -MeVal-OH” was 29.7%. The substance “HCl. H-L -MeVal-L -Phe-D -MeAla-L -Pro-OPac” came in with a step yield of 92.7%. Same read-out and setting: the value for “HCl.H-L -H-L -Leu-L -βHOMeVal-D -Hmp-L -MeVal-L -Phe-D -MeAla-L -Pro-OPac” was 74.2%; that for “HCl.H-L -aIle-L -MeVal-L -Leu-L -B HOMeVal-D -Hmp-L -MeVal-L -pFPhe-D -MeAla-L -Pro-OH” was 96.1%; that for “HCl.H-L -aIle-L -MeVal-L -Leu-L -βHOMeVal-D -Hmp-L -MeVal-L -Cha-D -MeAla-L -Pro-OH” was 90.3%.

Consider “HCl.H-L -aIle-L -MeVal-L -Leu-L -βHOMeVal-D -Hmp-L -MeVal-L -Cha-D -MeSer(Bzl)-L -Pro-OH”, for which the step yield came to 78.0%. In turn, “HCl.H-L -aIle-L -MeVal-L -Leu-L -βHOMeVal-D -Hmp-L -MeVal-L -Cha-D -MeVal-L -Pro-OH” displayed a step yield of 86.4%. Turning to “HCl.H-L -aIle-L -MeVal-L -Leu-L -βHOMeVal-D -Hmp-L -MeVal-L -Cha-L -MePhe-L -Pro-OH”, the step yield turned out to be 100%. The same measure, in the same setting: under “HCl.H-L -aIle-L -MeVal-L -Leu-L -βHOMeVal-D -Hmp-L -MeVal-L -Leu-D -MeAla-L -Pro-OH” stands 93.2%; under “HCl.H-L -aIle-L -MeVal-L -Leu-L -βHOMeVal-D -Hmp-L -MeVal-L -Phe-D -MeAla-L -Pro-OH”, 78.7%.

Turning to “HCl.H-L -aIle-L -MeVal-L -Leu-L -βHOMeVal-D -Hmp-L -MeVal-L -Phe-D -MeVal-L -Pro-OH”, the step yield is 73.6%. On the same count and under the same terms, the value for “HCl.H-L -aIle-L -MeVal-L -Leu-L -βHOMeVal-D -Hmp-L -MeVal-L -Ser(Bzl)-D -MeAla-L -Pro-OH” was 82.8%; that for “HCl.H-L -aIle-L -MeVal-L -Leu-L -βHOMeVal-D -Hmp-L -MeVal-L -Tyr(Bzl)-D -MeAla-L -Pro-OH” was 96.1%; that for “HCl.H-L -aIle-L -MeVal-L -Leu-L -βHOMeVal-D -Hmp-L -MeVal-L -Tyr(c-C6 H11 --CH2 --)-D -MeAla-L -Pro-OH” was 80.8%.

On to “HCl.H-L -aIle-L -MeVal-L -Leu-L -βHOMeVal-D -Hmp-L -MeVal-OH”, for which the step yield stood at 100%. Same read-out and setting: under “PEPTIDE1{[aIle].[MeVal].L.[bHOMeVal].[D-Hmp].[MeVal].[Tyr(Me)].[D-MeAla].P}$PEPTIDE1,PEPTIDE1,1:R1-9:R2$$$V2.0” stands 69.1%; under “Z-L -Phe-L -MePhe-L -Pro-L -aIle-L -MeVal-L -Leu-L -βHOMeVal-D -Hmp-L -MeVal-OH”, 81.5%.

Consider “cyclo(L -aIle-L -MeVal-L -Leu-L -βHOMeVal-D -Hmp-L -MeVal-L -Cha-D -MeSer-L -Pro)”, for which the step yield is recorded as 80.5%. Still for that read-out and setting: the value for “cyclo(L -aIle-L -MeVal-L -Leu-L -βHOMeVal-D -Hmp-L -MeVal-L -Tyr-D -MeAla-L -Pro)” was 90.6%.

(Values after patent US5698670A (priority 1993, dated 1997).)
